Read-outs that look alike come from different tables or passages of the source. Results are given in words; binding and its absence hold for the method and conditions named. Binding seen in cells or lysates may run through a third protein. Here binding means that the protein was enriched with, or labelled near, the bait; the list need not be complete.
B1: DHX30 (protein, UniProt Q7L2E3 1-1194)
chain: MFSLDSFRKDRAQHRQRQCKLPPPRLPPMCVNPTPGGTISRASRDLLKEFPQPKNLLNSVIGRALGISHAKDKLVYVHTNGPKKKKVTLHIKWPKSVEVEGYGSKKIDAERQAAAAACQLFKGWGLLGPRNELFDAAKYRVLADRFGSPADSWWRPEPTMPPTSWRQLNPESIRPGGPGGLSRSLGREEEEDEEEELEEGTIDVTDFLSMTQQDSHAPLRDSRGSSFEMTDDDSAIRALTQFPLPKNLLAKVIQIATSSSTAKNLMQFHTVGTKTKLSTLTLLWPCPMTFVAKGRRKAEAENKAAALACKKLKSLGLVDRNNEPLTHAMYNLASLRELGETQRRPCTIQVPEPILRKIETFLNHYPVESSWIAPELRLQSDDILPLGKDSGPLSDPITGKPYVPLLEAEEVRLSQSLLELWRRRGPVWQEAPQLPVDPHRDTILNAIEQHPVVVISGDTGCGKTTRIPQLLLERYVTEGRGARCNVIITQPRRISAVSVAQRVSHELGPSLRRNVGFQVRLESKPPSRGGALLFCTVGILLRKLQSNPSLEGVSHVIVDEVHERDVNTDFLLILLKGLQRLNPALRLVLMSATGDNERFSRYFGGCPVIKVPGFMYPVKEHYLEDILAKLGKHQYLHRHRHHESEDECALDLDLVTDLVLHIDARGEPGGILCFLPGWQEIKGVQQRLQEALGMHESKYLILPVHSNIPMMDQKAIFQQPPVGVRKIVLATNIAETSITINDIVHVVDSGLHKEERYDLKTKVSCLETVWVSRANVIQRRGRAGRCQSGFAYHLFPRSRLEKMVPFQVPEILRTPLENLVLQAKIHMPEKTAVEFLSKAVDSPNIKAVDEAVILLQEIGVLDQREYLTTLGQRLAHISTDPRLAKAIVLAAIFRCLHPLLVVVSCLTRDPFSSSLQNRAEVDKVKALLSHDSGSDHLAFVRAVAGWEEVLRWQDRSSRENYLEENLLYAPSLRFIHGLIKQFSENIYEAFLVGKPSDCTLASAQCNEYSEEEELVKGVLMAGLYPNLIQVRQGKVTRQGKFKPNSVTYRTKSGNILLHKSTINREATRLRSRWLTYFMAVKSNGSVFVRDSSQVHPLAVLLLTDGDVHIRDDGRRATISLSDSDLLRLEGDSRTVRLLKELRRALGRMVERSLRSELAALPPSVQEEHGQLLALLAELLRGPCGSFDVRKTADD
B2: RARS (protein, UniProt P54136 1-660)
chain: MDVLVSECSARLLQQEEEIKSLTAEIDRLKNCGCLGASPNLEQLQEENLKLKYRLNILRKSLQAERNKPTKNMINIISRLQEVFGHAIKAAYPDLENPPLLVTPSQQAKFGDYQCNSAMGISQMLKTKEQKVNPREIAENITKHLPDNECIEKVEIAGPGFINVHLRKDFVSEQLTSLLVNGVQLPALGENKKVIVDFSSPNIAKEMHVGHLRSTIIGESISRLFEFAGYDVLRLNHVGDWGTQFGMLIAHLQDKFPDYLTVSPPIGDLQVFYKESKKRFDTEEEFKKRAYQCVVLLQGKNPDITKAWKLICDVSRQELNKIYDALDVSLIERGESFYQDRMNDIVKEFEDRGFVQVDDGRKIVFVPGCSIPLTIVKSDGGYTYDTSDLAAIKQRLFEEKADMIIYVVDNGQSVHFQTIFAAAQMIGWYDPKVTRVFHAGFGVVLGEDKKKFKTRSGETVRLMDLLGEGLKRSMDKLKEKERDKVLTAEELNAAQTSVAYGCIKYADLSHNRLNDYIFSFDKMLDDRGNTAAYLLYAFTRIRSIARLANIDEEMLQKAARETKILLDHEKEWKLGRCILRFPEILQKILDDLFLHTLCDYIYELATAFTEFYDSCYCVEKDRQTGKILKVNMWRMLLCEAVAAVMAKGFDILGIKPVQRM
B3: poly(A) polymerase (MTPAP) (protein, UniProt Q9NVV4 38-582)
chain: KDLRRDEQPSGSVETGFEDKIPKRRFSEMQNERREQAQRTVLIHCPEKISENKFLKYLSQFGPINNHFFYESFGLYAVVEFCQKESIGSLQNGTHTPSTAMETAIPFRSRFFNLKLKNQTSERSRVRSSNQLPRSNKQLFELLCYAESIDDQLNTLLKEFQLTEENTKLRYLTCSLIEDMAAAYFPDCIVRPFGSSVNTFGKLGCDLDMFLDLDETRNLSAHKISGNFLMEFQVKNVPSERIATQKILSVLGECLDHFGPGCVGVQKILNARCPLVRFSHQASGFQCDLTTNNRIALTSSELLYIYGALDSRVRALVFSVRCWARAHSLTSSIPGAWITNFSLTMMVIFFLQRRSPPILPTLDSLKTLADAEDKCVIEGNNCTFVRDLSRIKPSQNTETLELLLKEFFEYFGNFAFDKNSINIRQGREQNKPDSSPLYIQNPFETSLNISKNVSQSQLQKFVDLARESAWILQQEDTDRPSISSNRPWGLVSLLLPSAPNRKSFTKKKSNKFAIETVKNLLESLKGNRTENFTKTSGKRTISTQT
B4: DDX28 (protein, UniProt Q9NUL7 1-540)
chain: MALTRPVRLFSLVTRLLLAPRRGLTVRSPDEPLPVVRIPVALQRQLEQRQSRRRNLPRPVLVRPGPLLVSARRPELNQPARLTLGRWERAPLASQGWKSRRARRDHFSIERAQQEAPAVRKLSSKGSFADLGLEPRVLHALQEAAPEVVQPTTVQSSTIPSLLRGRHVVCAAETGSGKTLSYLLPLLQRLLGQPSLDSLPIPAPRGLVLVPSRELAQQVRAVAQPLGRSLGLLVRDLEGGHGMRRIRLQLSRQPSADVLVATPGALWKALKSRLISLEQLSFLVLDEADTLLDESFLELVDYILEKSHIAEGPADLEDPFNPKAQLVLVGATFPEGVGQLLNKVASPDAVTTITSSKLHCIMPHVKQTFLRLKGADKVAELVHILKHRDRAERTGPSGTVLVFCNSSSTVNWLGYILDDHKIQHLRLQGQMPALMRVGIFQSFQKSSRDILLCTDIASRGLDSTGVELVVNYDFPPTLQDYIHRAGRVGRVGSEVPGTVISFVTHPWDVSLVQKIELAARRRRSLPGLASSVKEPLPQAT

Amino acid sequences for entries named in this document (tags omitted).
UniProt P53396: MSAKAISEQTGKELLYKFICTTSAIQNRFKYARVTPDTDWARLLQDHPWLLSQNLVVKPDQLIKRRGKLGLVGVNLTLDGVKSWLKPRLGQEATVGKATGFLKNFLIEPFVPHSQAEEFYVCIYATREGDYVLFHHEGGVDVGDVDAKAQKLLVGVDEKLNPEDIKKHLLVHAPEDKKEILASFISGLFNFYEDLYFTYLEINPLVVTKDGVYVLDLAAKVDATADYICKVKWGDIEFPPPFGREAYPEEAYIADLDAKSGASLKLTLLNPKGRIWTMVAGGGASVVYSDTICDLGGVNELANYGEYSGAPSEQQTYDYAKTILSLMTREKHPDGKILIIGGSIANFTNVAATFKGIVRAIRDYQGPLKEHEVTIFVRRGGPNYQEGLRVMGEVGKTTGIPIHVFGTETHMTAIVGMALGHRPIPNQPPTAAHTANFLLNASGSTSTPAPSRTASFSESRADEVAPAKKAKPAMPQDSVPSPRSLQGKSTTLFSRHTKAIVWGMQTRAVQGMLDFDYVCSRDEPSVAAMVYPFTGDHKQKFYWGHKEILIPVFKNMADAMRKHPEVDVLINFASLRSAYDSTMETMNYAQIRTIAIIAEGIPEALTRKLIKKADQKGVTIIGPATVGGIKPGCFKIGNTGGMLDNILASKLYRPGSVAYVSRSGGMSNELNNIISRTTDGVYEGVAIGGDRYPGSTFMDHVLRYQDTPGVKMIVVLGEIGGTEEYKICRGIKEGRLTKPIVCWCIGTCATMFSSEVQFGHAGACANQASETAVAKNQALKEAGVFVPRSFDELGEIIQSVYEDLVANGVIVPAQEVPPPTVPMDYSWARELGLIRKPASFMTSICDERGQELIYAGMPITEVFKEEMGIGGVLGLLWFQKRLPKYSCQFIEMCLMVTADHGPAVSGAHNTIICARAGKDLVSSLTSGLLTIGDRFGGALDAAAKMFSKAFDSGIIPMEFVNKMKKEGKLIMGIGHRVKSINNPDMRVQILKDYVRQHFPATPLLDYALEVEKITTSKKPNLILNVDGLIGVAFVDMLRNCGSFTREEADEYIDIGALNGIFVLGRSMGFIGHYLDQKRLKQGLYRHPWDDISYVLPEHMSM

Assays:
Experiment in all cases: affinity purification with mass spectrometry
[1] = target: SLC25A1 (endogenous) (human (endogenous in HAP1)) (UniProt P53007)
[2] = target: FLAG-SLC25A1 (human) (UniProt P53007)
[3] = target: SLC25A1 (endogenous) (human (endogenous in HAP1)) (UniProt P53007); remark: listed apart in the source

Molecule | binding [2] | other results
ATP citrate lyase (ACLY) (from UniProt P53396 1-1101) | – | binding [1]: binds
B1 | binds | –
B2 | – | binding [3]: binds
B3 | binds | –
B4 | binds | –

Source: paper doi:10.1101/2020.02.22.960971
